The target of experiment [1] is N-terminally hexahistidine-tagged, mature form of human FGF21 (H29 to S209) (human) (UniProt Q9NSA1). The experiment is described as follows: SPR: βKlotho-FGFR1c complex over immobilized FGF21 (FIGS. 8A-8C). A general note: Surface plasmon resonance follows binding to a sensor surface in real time, without labels.
For experiment [2] the target is unchanged. The experiment is described as follows: SPR: βKlotho-FGFR1c complex over immobilized FGF21 (FIGS. 7D-7E).
Experiment [3] deals with T1, binary complex of FGFR1c ligand-binding domain with βKlotho ectodomain (murine; human) (UniProt Q99N32+P11362). The experiment is described as follows: SPR competition: increasing FGF21 in solution with a fixed concentration of βKlotho-FGFR1c complex over immobilized FGF21.
The target of experiment [4] is T1, binary complex of FGFR1c ligand-binding domain with βKlotho ectodomain (murine; human). The experiment is described as follows: SPR competition: increasing FGF21 with a fixed concentration of βKlotho-FGFR1c complex over immobilized FGF21.

Sequences of proteins named here, by UniProt entry; tags and fusion partners are left off. A change or cut given only in a name is not applied to a line headed by its entry.
UniProt Q9NSA1: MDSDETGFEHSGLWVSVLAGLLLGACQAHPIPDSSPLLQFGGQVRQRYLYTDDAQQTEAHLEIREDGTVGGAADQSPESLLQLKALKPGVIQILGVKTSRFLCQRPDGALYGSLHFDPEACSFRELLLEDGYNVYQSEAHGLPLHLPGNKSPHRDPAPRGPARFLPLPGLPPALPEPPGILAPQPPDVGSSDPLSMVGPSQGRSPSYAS
UniProt Q99N32: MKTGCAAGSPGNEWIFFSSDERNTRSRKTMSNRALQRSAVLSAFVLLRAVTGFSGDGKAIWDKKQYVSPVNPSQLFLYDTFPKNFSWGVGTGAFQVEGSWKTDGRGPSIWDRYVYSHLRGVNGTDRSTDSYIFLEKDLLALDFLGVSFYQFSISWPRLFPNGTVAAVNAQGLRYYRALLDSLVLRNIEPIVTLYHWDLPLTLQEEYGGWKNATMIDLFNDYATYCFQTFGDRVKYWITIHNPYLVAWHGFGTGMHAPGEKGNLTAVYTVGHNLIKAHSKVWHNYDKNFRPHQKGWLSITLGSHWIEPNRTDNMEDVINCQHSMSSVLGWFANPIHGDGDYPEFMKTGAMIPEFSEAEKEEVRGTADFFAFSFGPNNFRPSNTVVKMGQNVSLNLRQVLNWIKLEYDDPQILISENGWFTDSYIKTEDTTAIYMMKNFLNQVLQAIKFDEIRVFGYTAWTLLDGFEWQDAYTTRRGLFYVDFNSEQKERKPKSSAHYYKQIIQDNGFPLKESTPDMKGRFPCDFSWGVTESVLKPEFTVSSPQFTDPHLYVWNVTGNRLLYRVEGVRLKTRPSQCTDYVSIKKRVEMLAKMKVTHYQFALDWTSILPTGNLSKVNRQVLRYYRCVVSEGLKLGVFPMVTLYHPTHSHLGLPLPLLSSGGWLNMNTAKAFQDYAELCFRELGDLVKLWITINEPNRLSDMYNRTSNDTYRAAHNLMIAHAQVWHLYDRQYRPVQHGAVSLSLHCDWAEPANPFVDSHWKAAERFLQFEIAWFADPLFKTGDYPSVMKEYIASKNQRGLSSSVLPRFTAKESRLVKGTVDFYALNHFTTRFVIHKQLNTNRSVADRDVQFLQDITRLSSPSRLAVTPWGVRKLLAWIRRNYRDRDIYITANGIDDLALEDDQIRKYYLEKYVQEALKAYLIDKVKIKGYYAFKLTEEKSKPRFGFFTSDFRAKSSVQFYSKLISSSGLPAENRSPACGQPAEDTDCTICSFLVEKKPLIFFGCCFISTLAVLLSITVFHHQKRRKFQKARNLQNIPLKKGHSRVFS
UniProt P11362: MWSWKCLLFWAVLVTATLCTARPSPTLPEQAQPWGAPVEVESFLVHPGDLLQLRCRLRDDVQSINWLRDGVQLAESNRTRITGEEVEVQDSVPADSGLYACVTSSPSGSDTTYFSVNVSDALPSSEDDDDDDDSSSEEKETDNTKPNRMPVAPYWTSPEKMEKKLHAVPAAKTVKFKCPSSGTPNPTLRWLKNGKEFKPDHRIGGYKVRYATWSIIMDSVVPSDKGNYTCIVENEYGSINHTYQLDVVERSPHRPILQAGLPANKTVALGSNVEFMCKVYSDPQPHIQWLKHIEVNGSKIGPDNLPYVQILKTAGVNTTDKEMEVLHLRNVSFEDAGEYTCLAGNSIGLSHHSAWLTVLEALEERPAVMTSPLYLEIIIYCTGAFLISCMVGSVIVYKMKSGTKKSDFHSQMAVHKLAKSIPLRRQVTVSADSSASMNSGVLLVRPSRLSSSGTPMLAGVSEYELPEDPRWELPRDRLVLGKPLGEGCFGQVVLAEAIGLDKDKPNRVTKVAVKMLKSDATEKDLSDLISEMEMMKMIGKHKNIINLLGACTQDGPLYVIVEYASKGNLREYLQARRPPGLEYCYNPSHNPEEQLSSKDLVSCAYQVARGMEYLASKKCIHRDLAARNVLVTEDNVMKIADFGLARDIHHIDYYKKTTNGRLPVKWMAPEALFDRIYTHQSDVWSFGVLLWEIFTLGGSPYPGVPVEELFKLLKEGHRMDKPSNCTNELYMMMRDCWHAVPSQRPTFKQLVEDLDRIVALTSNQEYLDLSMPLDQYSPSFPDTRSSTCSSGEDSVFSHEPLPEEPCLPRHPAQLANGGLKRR

Results are given in words; binding and its absence hold for the method and conditions named. Some binding calls cover weakened binding; strength is not graded here.

“binary complex of FGFR1c ligand-binding domain with βKlotho ectodomain (from UniProt Q99N32 53-995; P11362 142-365) (receptor)”: the binding entry in experiment [1] and in experiment [2] was “binds” each time.

Regarding “N-terminally hexahistidine-tagged, mature form of human FGF21 (H29 to S209) (from UniProt Q9NSA1 29-209) (ligand)”, the binding entry in experiment [3] and in experiment [4] was “binds” in each case.

The record behind these values is patent US20130331325A1.
